{"source": "PubChem BioAssay AID504764 (Drosophila RNAi Screening Center, 2011)", "screen": "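Genes whose knock-down alters Notch-dependent transcription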 (primary screen)", "cell system": "Drosophila Kc167 cells", "reagents": "long dsRNA against Drosophila genes", "timing": "about 5 days (4 days dsRNA, then 24 h after transfection)", "treatment": "transfection of constitutively active membrane-tethered Notch lacking the extracellular domain, read 24 h later", "measurement": "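Firefly luciferase from an E(spl)m3 reporter with active Notch, plus control-promoter and uninduced reporter wells for normalisation; unnormalised counts, duplicate wells a and b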", "reading the numbers": "induced reporter light, run 1, well a and induced reporter light, run 1, well b: higher = more light from the Notch target reporter with active Notch; control promoter light, run 1, well a and control promoter light, run 1, well b: higher = more light from the viral control promoter (cell number, transfection, viability); uninduced reporter light, run 1, well a: higher = more light from the Notch target reporter without active Notch", "rule for the call": "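Hit if the duplicate-averaged log2 ratio of induced to control-promoter light gives a plate-wise z beyond ±2, or induced to uninduced beyond ±1.8; weak-control or discordant-duplicate wells dropped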", "meaning of the calls": "active = modifier hit (raised or lowered Notch signal); inactive = not a hit", "note": "In all, the deposit lists about 22,000 reagents; below is an unselected part of those that have a named target and a result. Of all reagents, 403 (1.9%) got an active call. 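Unnormalised raw counts per well; ratio z-scores behind the hit calls and whether each hit raises or lowers signal are not deposited.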 Names joined by + are all predicted targets of the reagent. No sequences are given here. The record does not give: the amount of reagent."}
{"Gene": "CG14370", "amplicon": "DRSC14832", "induced reporter light, run 1, well a": 2.12e5, "induced reporter light, run 1, well b": 2.19e5, "control promoter light, run 1, well a": 2.28e5, "control promoter light, run 1, well b": 2.40e5, "uninduced reporter light, run 1, well a": 17875, "call": "inactive"}
{"Gene": "Ski6", "amplicon": "DRSC02491", "induced reporter light, run 1, well a": 1.25e5, "induced reporter light, run 1, well b": 1.35e5, "control promoter light, run 1, well a": 1.01e5, "control promoter light, run 1, well b": 1.07e5, "uninduced reporter light, run 1, well a": 10525, "call": "inactive"}
{"Gene": "CG13606", "amplicon": "DRSC14609", "induced reporter light, run 1, well a": 1.43e5, "induced reporter light, run 1, well b": 1.67e5, "control promoter light, run 1, well a": 1.90e5, "control promoter light, run 1, well b": 1.69e5, "uninduced reporter light, run 1, well a": 12492, "call": "inactive"}
{"Gene": "l(2)gd1", "amplicon": "DRSC02773", "induced reporter light, run 1, well a": 2.38e5, "induced reporter light, run 1, well b": 2.49e5, "control promoter light, run 1, well a": 1.81e5, "control promoter light, run 1, well b": 1.93e5, "uninduced reporter light, run 1, well a": 15145, "call": "inactive"}
{"Gene": "CG17544", "amplicon": "DRSC02624", "induced reporter light, run 1, well a": 2.04e5, "induced reporter light, run 1, well b": 2.12e5, "control promoter light, run 1, well a": 1.99e5, "control promoter light, run 1, well b": 1.83e5, "uninduced reporter light, run 1, well a": 15780, "call": "inactive"}
{"Gene": "MAN1", "amplicon": "DRSC04342", "induced reporter light, run 1, well a": 1.77e5, "induced reporter light, run 1, well b": 1.85e5, "control promoter light, run 1, well a": 1.46e5, "control promoter light, run 1, well b": 1.80e5, "uninduced reporter light, run 1, well a": 14575, "call": "inactive"}
{"Gene": "CG3546", "amplicon": "DRSC18308", "induced reporter light, run 1, well a": 1.71e5, "induced reporter light, run 1, well b": 1.63e5, "control promoter light, run 1, well a": 2.93e5, "control promoter light, run 1, well b": 2.98e5, "uninduced reporter light, run 1, well a": 14720, "call": "inactive"}
{"Gene": "SdhD", "amplicon": "DRSC14215", "induced reporter light, run 1, well a": 1.67e5, "induced reporter light, run 1, well b": 1.63e5, "control promoter light, run 1, well a": 2.12e5, "control promoter light, run 1, well b": 2.07e5, "uninduced reporter light, run 1, well a": 13405, "call": "inactive"}
{"Gene": "DAT", "amplicon": "DRSC07394", "induced reporter light, run 1, well a": 96920, "induced reporter light, run 1, well b": 77905, "control promoter light, run 1, well a": 1.09e5, "control promoter light, run 1, well b": 1.12e5, "uninduced reporter light, run 1, well a": 7410, "call": "inactive"}
{"Gene": "tzn", "amplicon": "DRSC11755", "induced reporter light, run 1, well a": 1.65e5, "induced reporter light, run 1, well b": 1.61e5, "control promoter light, run 1, well a": 1.37e5, "control promoter light, run 1, well b": 1.44e5, "uninduced reporter light, run 1, well a": 12610, "call": "inactive"}
{"Gene": "pths", "amplicon": "DRSC03171", "induced reporter light, run 1, well a": 18965, "induced reporter light, run 1, well b": 12055, "control promoter light, run 1, well a": 10310, "control promoter light, run 1, well b": 8425, "uninduced reporter light, run 1, well a": 670, "call": "inactive"}
{"Gene": "CG17648", "amplicon": "DRSC00508", "induced reporter light, run 1, well a": 1.26e5, "induced reporter light, run 1, well b": 1.33e5, "control promoter light, run 1, well a": 1.04e5, "control promoter light, run 1, well b": 90985, "uninduced reporter light, run 1, well a": 9990, "call": "inactive"}
{"Gene": "CG4036", "amplicon": "DRSC02735", "induced reporter light, run 1, well a": 1.93e5, "induced reporter light, run 1, well b": 2.32e5, "control promoter light, run 1, well a": 1.93e5, "control promoter light, run 1, well b": 1.93e5, "uninduced reporter light, run 1, well a": 16155, "call": "inactive"}
{"Gene": "CG33964 + CG13175", "amplicon": "DRSC06300", "induced reporter light, run 1, well a": 91415, "induced reporter light, run 1, well b": 1.23e5, "control promoter light, run 1, well a": 1.41e5, "control promoter light, run 1, well b": 1.30e5, "uninduced reporter light, run 1, well a": 10370, "call": "inactive"}
{"Gene": "CG33964 + CG13175", "amplicon": "DRSC06301", "induced reporter light, run 1, well a": 90550, "induced reporter light, run 1, well b": 75865, "control promoter light, run 1, well a": 1.09e5, "control promoter light, run 1, well b": 1.02e5, "uninduced reporter light, run 1, well a": 8730, "call": "inactive"}
{"Gene": "CG33964 + CG13175", "amplicon": "DRSC07184", "induced reporter light, run 1, well a": 96990, "induced reporter light, run 1, well b": 93860, "control promoter light, run 1, well a": 1.14e5, "control promoter light, run 1, well b": 1.02e5, "uninduced reporter light, run 1, well a": 8188, "call": "inactive"}
{"Gene": "Uev1A", "amplicon": "DRSC09763", "induced reporter light, run 1, well a": 1.60e5, "induced reporter light, run 1, well b": 1.84e5, "control promoter light, run 1, well a": 1.19e5, "control promoter light, run 1, well b": 70510, "uninduced reporter light, run 1, well a": 15515, "call": "inactive"}
{"Gene": "CG4830", "amplicon": "DRSC15657", "induced reporter light, run 1, well a": 72395, "induced reporter light, run 1, well b": 94915, "control promoter light, run 1, well a": 84975, "control promoter light, run 1, well b": 80725, "uninduced reporter light, run 1, well a": 3890, "call": "inactive"}
{"Gene": "cbc", "amplicon": "DRSC06957", "induced reporter light, run 1, well a": 2.43e5, "induced reporter light, run 1, well b": 2.94e5, "control promoter light, run 1, well a": 2.57e5, "control promoter light, run 1, well b": 2.75e5, "uninduced reporter light, run 1, well a": 18785, "call": "inactive"}
{"Gene": "Sec22", "amplicon": "DRSC18538", "induced reporter light, run 1, well a": 1.79e5, "induced reporter light, run 1, well b": 1.84e5, "control promoter light, run 1, well a": 2.20e5, "control promoter light, run 1, well b": 1.99e5, "uninduced reporter light, run 1, well a": 16392, "call": "inactive"}
{"Gene": "Vamp7", "amplicon": "DRSC06599", "induced reporter light, run 1, well a": 1.59e5, "induced reporter light, run 1, well b": 1.45e5, "control promoter light, run 1, well a": 2.35e5, "control promoter light, run 1, well b": 1.90e5, "uninduced reporter light, run 1, well a": 15100, "call": "inactive"}
{"Gene": "CG6421", "amplicon": "DRSC07420", "induced reporter light, run 1, well a": 85655, "induced reporter light, run 1, well b": 1.12e5, "control promoter light, run 1, well a": 1.51e5, "control promoter light, run 1, well b": 2.01e5, "uninduced reporter light, run 1, well a": 6975, "call": "inactive"}
{"Gene": "Sgs1", "amplicon": "DRSC00787", "induced reporter light, run 1, well a": 1.05e5, "induced reporter light, run 1, well b": 87905, "control promoter light, run 1, well a": 96130, "control promoter light, run 1, well b": 83950, "uninduced reporter light, run 1, well a": 6165, "call": "inactive"}
{"Gene": "Sgs1", "amplicon": "DRSC00848", "induced reporter light, run 1, well a": 1.02e5, "induced reporter light, run 1, well b": 1.06e5, "control promoter light, run 1, well a": 1.51e5, "control promoter light, run 1, well b": 1.55e5, "uninduced reporter light, run 1, well a": 8145, "call": "inactive"}

Limited to “control promoter light, run 1, well b” (3 entries from above):
CG33964 + CG13175 [DRSC07184]: 1.02e5
Uev1A [DRSC09763]: 70510
CG4830 [DRSC15657]: 80725
